{"source": "PubChem BioAssay AID1671195 (Yale University, 2021)", "test": "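Regulators of LDL receptor activity judged by labelled LDL uptake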 (primary screen)", "cells": "human Huh7 hepatoma cells", "knock-down reagent": "siRNA pool against human genes, 18 nM", "timing": "about 2 to 2.5 days of knockdown, then 8 h LDL uptake", "conditions": "DiI-labelled LDL at 30 µg/ml for 8 h, in lipoprotein-deficient serum medium", "measurement": "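Per-cell DiI-LDL intensity by automated imaging; well means scaled to the plate median and given as a robust z-score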", "direction": "robust z-score: higher = more LDL uptake after knockdown", "active means": "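Active when two or more replicates show a robust z-score above 2 or below -2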", "note": "The whole screen tested about 22,000 reagents; shown is an unselected part. About 1,510 of them (6.9%) were called active. 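Active includes knockdowns raising or lowering LDL uptake; positive z-scores mean more uptake, negative mean less.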"}
{"gene knocked down":"LOC442376 (retired record)","robust z-score, replicate 1":-2.25,"robust z-score, replicate 2":-2.1,"robust z-score, replicate 3":-2.2,"Call":"active"}
{"gene knocked down":"IL36G (interleukin 36 gamma)","robust z-score, replicate 1":-1.37,"robust z-score, replicate 2":-1.08,"robust z-score, replicate 3":-1.24,"Call":"inactive"}
{"gene knocked down":"TBXAS1 (thromboxane A synthase 1)","robust z-score, replicate 1":-1.08,"robust z-score, replicate 2":-1.16,"robust z-score, replicate 3":-1.03,"Call":"inactive"}
{"gene knocked down":"RRBP1 (ribosome binding protein 1)","robust z-score, replicate 1":1.88,"robust z-score, replicate 2":0.286,"robust z-score, replicate 3":0.412,"Call":"inactive"}
{"gene knocked down":"COL17A1 (collagen type XVII alpha 1 chain)","robust z-score, replicate 1":-0.278,"robust z-score, replicate 2":0.169,"robust z-score, replicate 3":-0.411,"Call":"inactive"}
{"gene knocked down":"SOX8 (SRY-box transcription factor 8)","robust z-score, replicate 1":-0.974,"robust z-score, replicate 2":-0.388,"robust z-score, replicate 3":-0.589,"Call":"inactive"}
{"gene knocked down":"ANKRD39 (ankyrin repeat domain 39)","robust z-score, replicate 1":-1.03,"robust z-score, replicate 2":1.59,"robust z-score, replicate 3":1.93,"Call":"inactive"}
{"gene knocked down":"LINC01996 (long independently transcribed non-coding RNA 1996)","robust z-score, replicate 1":-0.604,"robust z-score, replicate 2":-0.865,"robust z-score, replicate 3":-1.08,"Call":"inactive"}
{"gene knocked down":"STIM1 (stromal interaction molecule 1)","robust z-score, replicate 1":-0.174,"robust z-score, replicate 2":0.715,"robust z-score, replicate 3":1.61,"Call":"inactive"}
{"gene knocked down":"RSPO2 (R-spondin 2)","robust z-score, replicate 1":4.73,"robust z-score, replicate 2":5.33,"robust z-score, replicate 3":5.03,"Call":"active"}
{"gene knocked down":"DDX1 (DEAD-box helicase 1)","robust z-score, replicate 1":0.531,"robust z-score, replicate 2":-2.51,"robust z-score, replicate 3":-2.22,"Call":"active"}
{"gene knocked down":"TAX1BP3 (Tax1 binding protein 3)","robust z-score, replicate 1":0.268,"robust z-score, replicate 2":1.58,"robust z-score, replicate 3":1.68,"Call":"inactive"}
{"gene knocked down":"LOC388752 (retired record)","robust z-score, replicate 1":1.71,"robust z-score, replicate 2":0.837,"robust z-score, replicate 3":1.21,"Call":"inactive"}
{"gene knocked down":"LOC387631 (retired record)","robust z-score, replicate 1":-0.831,"robust z-score, replicate 2":-0.693,"robust z-score, replicate 3":-1.18,"Call":"inactive"}
{"gene knocked down":"SEC11B","robust z-score, replicate 1":2.17,"robust z-score, replicate 2":2.62,"robust z-score, replicate 3":2.28,"Call":"active"}
{"gene knocked down":"MED26 (mediator complex subunit 26)","robust z-score, replicate 1":-0.856,"robust z-score, replicate 2":-0.614,"robust z-score, replicate 3":-0.75,"Call":"inactive"}
{"gene knocked down":"DTL (denticleless E3 ubiquitin protein ligase adapter)","robust z-score, replicate 1":-0.243,"robust z-score, replicate 2":0.106,"robust z-score, replicate 3":0.114,"Call":"inactive"}
{"gene knocked down":"LHX2 (LIM homeobox 2)","robust z-score, replicate 1":-0.56,"robust z-score, replicate 2":0.573,"robust z-score, replicate 3":-0.509,"Call":"inactive"}
{"gene knocked down":"LINC01588 (long independently transcribed non-coding RNA 1588)","robust z-score, replicate 1":0.252,"robust z-score, replicate 2":-0.224,"robust z-score, replicate 3":-0.283,"Call":"inactive"}
{"gene knocked down":"REV1 (REV1 DNA directed polymerase)","robust z-score, replicate 1":-0.0374,"robust z-score, replicate 2":0.254,"robust z-score, replicate 3":0.293,"Call":"inactive"}
{"gene knocked down":"OR5M3 (olfactory receptor family 5 subfamily M member 3)","robust z-score, replicate 1":0.956,"robust z-score, replicate 2":1.97,"robust z-score, replicate 3":1.69,"Call":"inactive"}
{"gene knocked down":"NMUR2 (neuromedin U receptor 2)","robust z-score, replicate 1":0.614,"robust z-score, replicate 2":0.952,"robust z-score, replicate 3":1.33,"Call":"inactive"}
{"gene knocked down":"FER1L5 (fer-1 like family member 5)","robust z-score, replicate 1":0.391,"robust z-score, replicate 2":-0.118,"robust z-score, replicate 3":-0.0139,"Call":"inactive"}
{"gene knocked down":"ATP11B (ATPase phospholipid transporting 11B (putative))","robust z-score, replicate 1":0.105,"robust z-score, replicate 2":-0.58,"robust z-score, replicate 3":0.0938,"Call":"inactive"}

Hits (from the list above):
{"gene knocked down":"LOC442376 (retired record)","robust z-score, replicate 1":-2.25,"robust z-score, replicate 2":-2.1,"robust z-score, replicate 3":-2.2,"Call":"active"}
{"gene knocked down":"RSPO2 (R-spondin 2)","robust z-score, replicate 1":4.73,"robust z-score, replicate 2":5.33,"robust z-score, replicate 3":5.03,"Call":"active"}
{"gene knocked down":"DDX1 (DEAD-box helicase 1)","robust z-score, replicate 1":0.531,"robust z-score, replicate 2":-2.51,"robust z-score, replicate 3":-2.22,"Call":"active"}
{"gene knocked down":"SEC11B","robust z-score, replicate 1":2.17,"robust z-score, replicate 2":2.62,"robust z-score, replicate 3":2.28,"Call":"active"}
